Reference: the supplement of paper PMC7238544
Counter-ions that a name gives are not always drawn. ± gives the standard deviation of the averaged measurements. The list shows a part of the results. The data scatter; read single values as rough. Where a SMILES comes first, the peptide text is derived from it.

Legend:
hAMSC donor 1 [1] = assay: Hoechst total cell count ratio vs vehicle control; higher = more cells (less toxicity)
hAMSC donor 2 [2] = assay: as above
hAMSC donor 1 [3] = assay: transgenic luciferase activity (RLU/mg protein) fold change vs vehicle control (ratio); higher = more transgene expression
hAMSC donor 1 [4] = assay: transfection efficiency (EGFP+ cells / Hoechst count) fold change vs vehicle control (ratio); higher = enhanced transfection
hAMSC donor 2 [5] = assay: as above
hAMSC donor 2 [6] = assay: transgenic luciferase activity (RLU/mg protein) fold change vs vehicle control (ratio); hAMSC are human adipose-derived mesenchymal stem cells given an EGFP-luciferase plasmid by lipofection; higher = more transgene expression
[7] = priming compound concentration 0.2 µM
[8] = priming compound concentration 1.7 µM
[9] = priming compound concentration 13 µM

Row | SMILES | Hoechst total cell count ratio (hAMSC donor 1 [1]; [7]) | Hoechst total cell count ratio (hAMSC donor 1 [1]; [8]) | Hoechst total cell count ratio (hAMSC donor 1 [1]; [9]) | Hoechst total cell count ratio (hAMSC donor 2 [2]; [7]) | Hoechst total cell count ratio (hAMSC donor 2 [2]; [8]) | Hoechst total cell count ratio (hAMSC donor 2 [2]; [9]) | transgenic luciferase activity (hAMSC donor 1 [3]; [8]) | transfection efficiency (hAMSC donor 1 [4]; [7]) | transfection efficiency (hAMSC donor 1 [4]; [8]) | transfection efficiency (hAMSC donor 1 [4]; [9]) | transfection efficiency (hAMSC donor 2 [5]; [7]) | transfection efficiency (hAMSC donor 2 [5]; [8]) | transfection efficiency (hAMSC donor 2 [5]; [9]) | transgenic luciferase activity (hAMSC donor 2 [6]; [9]) | transgenic luciferase activity (hAMSC donor 1 [3]; [7]) | transgenic luciferase activity (hAMSC donor 2 [6]; [7]) | transgenic luciferase activity (hAMSC donor 2 [6]; [8]) | transgenic luciferase activity (hAMSC donor 1 [3]; [9])
1 | NCC(O)c1ccc(O)c(O)c1 (racemic) [(+/-)-Norepinephrine hydrochloride] | 1.33 ± 0.3 | 1.11 ± 0.18 | 1.19 ± 0.066 | 0.785 ± 0.088 | 0.968 ± 0.24 | 1.11 ± 0.073 | 0.737 ± 0.22 | 1.08 ± 0.18 | 0.867 ± 0.09 | 1.03 ± 0.22 | 1.36 ± 0.23 | 1.35 ± 0.42 | 1.27 ± 0.3 | – | – | – | – | –
2 | CN1[C@@H]2CC[C@H]1C[C@@H](OC(=O)c1c[nH]c3ccccc13)C2 [Tropisetron hydrochloride] | 1.08 ± 0.062 | 1.07 ± 0.066 | 1.19 ± 0.13 | 1.4 ± 0.18 | 1.16 ± 0.12 | 1.12 ± 0.086 | 1.61 ± 0.1 | 1.14 ± 0.14 | 1.65 ± 0.48 | 0.912 ± 0.15 | 0.763 ± 0.07 | 0.943 ± 0.086 | 1.18 ± 0.21 | 0.748 ± 0.11 | – | – | – | –
3 | CC1(C)O[C@@H]2[C@@H](CO[C@@]3(COS(N)(=O)=O)OC(C)(C)O[C@@H]23)O1 [Topiramate] | 1.22 ± 0.1 | 1.2 ± 0.085 | 1.36 ± 0.094 | 0.976 ± 0.022 | 1.22 ± 0.16 | 1.09 ± 0.14 | – | 1.38 ± 0.41 | 1 ± 0.43 | 1.09 ± 0.36 | 1.66 ± 0.52 | 1.05 ± 0.16 | 1.14 ± 0.065 | – | 1.34 ± 0.55 | 0.978 ± 0.23 | – | –
4 | CCN(CC)CCOc1ccc(C(=C(Cl)c2ccccc2)c2ccccc2)cc1 [Clomifene citrate] | 1.02 ± 0.074 | 1.2 ± 0.063 | 1.02 ± 0.015 | 0.933 ± 0.21 | 1.36 ± 0.097 | 1.65 ± 0.46 | – | 1.22 ± 0.2 | 1.3 ± 0.33 | 1.2 ± 0.36 | 1.27 ± 0.17 | 0.965 ± 0.11 | 0.616 ± 0.12 | – | 0.836 ± 0.24 | – | 0.512 ± 0.04 | –
5 | CN(C)CC/C=C1/c2ccccc2COc2ccc(CC(=O)O)cc21 [Olopatadine hydrochloride] | 1.36 ± 0.27 | 1.18 ± 0.093 | 1.06 ± 0.17 | 0.961 ± 0.34 | 1.36 ± 0.11 | 1.37 ± 0.071 | – | 1.07 ± 0.28 | 1.04 ± 0.39 | 1.45 ± 0.51 | 1.28 ± 0.57 | 1.13 ± 0.15 | 0.799 ± 0.1 | – | – | – | – | 1.18 ± 0.22
6 | CCCCCCNC(=O)n1cc(F)c(=O)[nH]c1=O [Carmofur] | 1.19 ± 0.066 | 1.37 ± 0.12 | 1.21 ± 0.11 | 1.07 ± 0.17 | 0.735 ± 0.092 | 0.758 ± 0.011 | – | 1.47 ± 0.77 | 0.838 ± 0.076 | 0.735 ± 0.26 | 0.933 ± 0.18 | 1.02 ± 0.24 | 1.27 ± 0.21 | – | – | – | – | 0.675 ± 0.16
7 | C[C@H]1COc2c(C3(N)CC3)c(F)cc3c(=O)c(C(=O)O)cn1c23 [Pazufloxacin] | 1.23 ± 0.17 | 1.19 ± 0.089 | 1.18 ± 0.12 | 1.09 ± 0.086 | 0.957 ± 0.067 | 1.08 ± 0.32 | – | 0.972 ± 0.15 | 1.2 ± 0.21 | 0.895 ± 0.096 | 1.24 ± 0.25 | 1.69 ± 0.15 | 1.09 ± 0.16 | – | – | – | – | 0.518 ± 0.042
8 | C[C@H]1C[C@H]2[C@@H]3CCC4=CC(=O)C=C[C@]4(C)[C@@]3(Cl)[C@@H](O)C[C@]2(C)[C@@]1(O)C(=O)CO [Beclomethasone] | 1.35 ± 0.24 | 1.42 ± 0.23 | 1.29 ± 0.12 | 1.4 ± 0.16 | 1.45 ± 0.14 | 1.39 ± 0.32 | – | 1.16 ± 0.42 | 1.53 ± 0.43 | 1.69 ± 0.43 | 1.18 ± 0.44 | 1.22 ± 0.38 | 1.31 ± 0.36 | – | – | – | – | 6.78 ± 0.88
9 | Nc1ncnc2c1ncn2[C@@H]1O[C@H](CO)C[C@@H]1O [3'-Deoxydenosine] | 0.961 ± 0.057 | 0.896 ± 0.049 | 0.964 ± 0.081 | 0.95 ± 0.06 | 1.51 ± 0.17 | 1.07 ± 0.26 | – | 0.848 ± 0.11 | 1.05 ± 0.13 | 1.41 ± 0.62 | 1.23 ± 0.41 | 1.13 ± 0.35 | 0.847 ± 0.11 | – | 1.68 ± 1 | – | 0.831 ± 0.12 | –
10 | COCCCOc1ccnc(C[S+]([O-])c2nc3ccccc3[nH]2)c1C (configuration not stated) [Rabeprazole] | 1.33 ± 0.24 | 1.24 ± 0.27 | 0.99 ± 0.11 | 1.53 ± 0.21 | 1.05 ± 0.095 | 1.22 ± 0.095 | – | 1.17 ± 0.34 | 1.38 ± 0.32 | 1.49 ± 0.28 | 0.595 ± 0.12 | 1.1 ± 0.062 | 1.31 ± 0.11 | – | – | – | – | 0.825 ± 0.12
11 | O=C1CC[C@@H](C(=O)N2CSC[C@H]2C(=O)O)N1 [Pidotimod] (HELM PEPTIDE1{[Glp].[O=C(O)[C@@H]1CSCN1[*:1]]}$$$$V2.0) | 1.31 ± 0.051 | 1.44 ± 0.12 | 1.32 ± 0.06 | 0.817 ± 0.033 | 0.949 ± 0.053 | 1.05 ± 0.2 | – | 0.729 ± 0.037 | 0.872 ± 0.2 | 1 ± 0.11 | 1.01 ± 0.14 | 1.11 ± 0.16 | 1.19 ± 0.16 | – | 0.746 ± 0.13 | – | – | –
12 | C[C@H](CS)C(=O)N1CCC[C@H]1C(=O)O [Captopril] | 1.26 ± 0.15 | 1.35 ± 0.19 | 1.32 ± 0.17 | 0.943 ± 0.057 | 1.5 ± 0.083 | 1.41 ± 0.12 | – | 0.476 ± 0.18 | 1.13 ± 0.46 | 1.45 ± 0.39 | 1.55 ± 0.13 | 0.651 ± 0.02 | 0.907 ± 0.23 | – | 1.6 ± 0.58 | 0.772 ± 0.2 | – | –
13 | CCN(CC)C(=O)C1(c2ccccc2)CC1CN (configuration not stated) [Milnacipran hydrochloride] | 1.23 ± 0.077 | 1.1 ± 0.12 | 1.06 ± 0.018 | 1.28 ± 0.23 | 1.3 ± 0.086 | 1.26 ± 0.2 | – | 1.1 ± 0.14 | 0.951 ± 0.06 | 1.12 ± 0.27 | 1.12 ± 0.14 | 0.959 ± 0.088 | 1.18 ± 0.14 | – | – | – | – | 0.981 ± 0.059
14 | O=C1c2c(O)cc(O)cc2O[C@H](c2ccc(O)c(O)c2)[C@H]1O (racemic) [Taxifolin-(+/-)] | 1.06 ± 0.14 | 1.08 ± 0.19 | 1.11 ± 0.17 | 0.975 ± 0.19 | 1.06 ± 0.11 | 0.838 ± 0.18 | – | 0.835 ± 0.4 | 1.09 ± 0.28 | 0.949 ± 0.41 | 1.05 ± 0.041 | 1.15 ± 0.26 | 0.854 ± 0.24 | – | 1.8 ± 0.72 | – | 0.597 ± 0.25 | –
15 | O=c1c(O[C@@H]2O[C@H](CO)[C@@H](O)[C@H](O)[C@H]2O)c(-c2ccc(O)c(O)c2)oc2cc(O)cc(O)c12 [Isoquercitrin] | 0.951 ± 0.025 | 1.02 ± 0.07 | 0.875 ± 0.058 | 1.27 ± 0.1 | 1.29 ± 0.062 | 1.16 ± 0.16 | – | 1.33 ± 0.43 | 0.871 ± 0.38 | 1.74 ± 0.39 | 1.19 ± 0.018 | 0.834 ± 0.12 | 1.2 ± 0.082 | – | 2.32 ± 0.87 | 0.927 ± 0.055 | – | –

Two entries picked at random from those above, as already listed:
Row | SMILES | Hoechst total cell count ratio (hAMSC donor 1 [1]; [7]) | Hoechst total cell count ratio (hAMSC donor 1 [1]; [8]) | Hoechst total cell count ratio (hAMSC donor 1 [1]; [9]) | Hoechst total cell count ratio (hAMSC donor 2 [2]; [7]) | Hoechst total cell count ratio (hAMSC donor 2 [2]; [8]) | Hoechst total cell count ratio (hAMSC donor 2 [2]; [9]) | transgenic luciferase activity (hAMSC donor 1 [3]; [8]) | transfection efficiency (hAMSC donor 1 [4]; [7]) | transfection efficiency (hAMSC donor 1 [4]; [8]) | transfection efficiency (hAMSC donor 1 [4]; [9]) | transfection efficiency (hAMSC donor 2 [5]; [7]) | transfection efficiency (hAMSC donor 2 [5]; [8]) | transfection efficiency (hAMSC donor 2 [5]; [9]) | transgenic luciferase activity (hAMSC donor 2 [6]; [9]) | transgenic luciferase activity (hAMSC donor 1 [3]; [7]) | transgenic luciferase activity (hAMSC donor 2 [6]; [7]) | transgenic luciferase activity (hAMSC donor 2 [6]; [8]) | transgenic luciferase activity (hAMSC donor 1 [3]; [9])
1 | NCC(O)c1ccc(O)c(O)c1 (racemic) [(+/-)-Norepinephrine hydrochloride] | 1.33 ± 0.3 | 1.11 ± 0.18 | 1.19 ± 0.066 | 0.785 ± 0.088 | 0.968 ± 0.24 | 1.11 ± 0.073 | 0.737 ± 0.22 | 1.08 ± 0.18 | 0.867 ± 0.09 | 1.03 ± 0.22 | 1.36 ± 0.23 | 1.35 ± 0.42 | 1.27 ± 0.3 | – | – | – | – | –
2 | CN1[C@@H]2CC[C@H]1C[C@@H](OC(=O)c1c[nH]c3ccccc13)C2 [Tropisetron hydrochloride] | 1.08 ± 0.062 | 1.07 ± 0.066 | 1.19 ± 0.13 | 1.4 ± 0.18 | 1.16 ± 0.12 | 1.12 ± 0.086 | 1.61 ± 0.1 | 1.14 ± 0.14 | 1.65 ± 0.48 | 0.912 ± 0.15 | 0.763 ± 0.07 | 0.943 ± 0.086 | 1.18 ± 0.21 | 0.748 ± 0.11 | – | – | – | –
